Data set [1] can be described thus: Delicate membrane CP-MIMS flow cell: detection limits and signal response times in aqueous solutions.
Data set [2] is described as follows: Miniature CP-MIMS coaxial probe measurements in aqueous samples. The settings on record: for sensitivity relative to gemfibrozil (times greater, per mass): from calibration slopes; for membrane wash-out Improvement Factor (IF), methanol versus water wash: 40 mL stirred wash solvent.
Where [3] appears, read: 35 μm thick PDMS HFM, 5 cm, S/N = 3.
Where [4] appears, read: 215 μm thick PDMS HFM, 10 cm, aqueous 30 °C.
[5] abbreviates: Composite PDMS HFM (0.5 μm thick), 10 cm.
[6] abbreviates: Composite PDMS HFM (0.5 μm thick), S/N = 3.

Where no unit stands, none is given here, and values compare only within one read-out.

5 compounds from patent US9583325B2, “System and method of delicate membrane condensed phase membrane introduction mass spectrometry (CP-MIMS)” (priority 2013, dated 2017) can be followed below.

Consider `Cc1ccc(C)c(OCCCC(C)(C)C(=O)O)c1` [Gemfibrozil, 5-(2,5-dimethylphenoxy)-2,2-dimethyl-pentanoic acid], for which the t10-90% response time in data set [1] (35 μm thick PDMS HFM, 5 cm) came to 3.7 min; in data set [1] (setting [4]), 4.7 min; in data set [1] (setting [5]), 0.8 min. In addition, the Detection limit in data set [1] (setting [3]) turned out to be 0.5 ppb; in data set [1] (215 μm thick PDMS HFM, S/N = 3) it was 0.2 ppb; in data set [1] (setting [6]) it was 0.04 ppb; in data set [1] (Example 5, experiments to be repeated, composite PDMS HFM), 40 pptr; in data set [1] (composite PDMS HFM), 40 pptr. For the same compound, the “concentration observed in the methanol acceptor phase” value in data set [2] (40 mL of 70 ppb aqueous sample) was found to be 9 ppb. The “total mass transfer from the sample under steady state” value in data set [2] (70 ppb sample, acceptor flow 200 μL/min) was “ca. 2 ng/min”. Besides, the “maximum signal level lower than in 1.8 mL or larger samples” value in data set [2] (400 μL sample, 70 ppb) is on record as approximately 5 ×. In data set [2] (DI water, miniature probe, stir bar mixing), this compound came in with a calibration slope of 30 ppb^−1.
As to nonylphenol, the t10-90% response time turned out to be 3.5 min in data set [1] (35 μm thick PDMS HFM, 5 cm); 9.5 min in data set [1] (setting [4]); 1.0 min in data set [1] (setting [5]). The Detection limit in data set [1] (setting [3]) worked out at 2 ppb; in data set [1] (215 μm thick PDMS HFM, S/N = 3), 0.1 ppb; in data set [1] (setting [6]), 0.5 ppb. Moreover, the “sensitivity relative to gemfibrozil (times greater, per mass)” value in data set [2] is listed as 5.2 times. Further, the “membrane wash-out Improvement Factor (IF), methanol versus water wash” value in data set [2] (miniature probe) was 4.1.
As to `Oc1c(Cl)cc(Cl)cc1Cl` [2,4,6-Trichlorophenol, 2,4,6-trichlorophenol], the t10-90% response time in data set [1] (35 μm thick PDMS HFM, 5 cm) is recorded as 0.7 min; in data set [1] (setting [4]), 2.5 min; in data set [1] (setting [5]) it was 0.3 min. Further, the “membrane wash-out Improvement Factor (IF), methanol versus water wash” value in data set [2] (miniature probe) came out at 1.2.
As to `Oc1cc(Cl)ccc1Oc1ccc(Cl)cc1Cl` [Triclosan, 5-chloro-2-(2,4-dichlorophenoxy)phenol], the t10-90% response time in data set [1] (35 μm thick PDMS HFM, 5 cm) came to 2.0 min; in data set [1] (setting [4]) it was 5.8 min; in data set [1] (setting [5]), 0.6 min. Also, the Detection limit in data set [1] (setting [3]) stood at 0.5 ppb; in data set [1] (215 μm thick PDMS HFM, S/N = 3) it was 0.1 ppb; in data set [1] (setting [6]), 0.1 ppb. Also, the “sensitivity relative to gemfibrozil (times greater, per mass)” value in data set [2] amounted to 6.0 times.
`CC(C)C1=CC2=CC[C@@H]3[C@](C)(CCC[C@@]3(C)C(=O)O)[C@H]2CC1` [Abietic Acid, Abietic acid]: the t10-90% response time is reported as 12.5 min in data set [1] (35 μm thick PDMS HFM, 5 cm); 16.5 min in data set [1] (setting [4]); 1.6 min in data set [1] (setting [5]). Besides, the Detection limit is recorded as 2 ppb in data set [1] (setting [3]); 1 ppb in data set [1] (215 μm thick PDMS HFM, S/N = 3); 0.6 ppb in data set [1] (setting [6]).
